Experimental data from PubChem BioAssay AID1671190 (National Center for Advancing Translational Sciences (NCATS), 2021).
Screen size: about 580,000 compounds; about 6,100 (1.1%) were called active. This list was built around the results that the source calls inconclusive (neither active nor inactive); the mix of calls is not that of the screen. The call rests on the fitted dose curve; in most records, active means well fitted inhibition curve with a large enough effect; inconclusive means small, poorly fitted or top-dose-only effect, or another doubt; inactive means no such curve, though single readings can be large or run the other way. Where the call is inconclusive, the potency comes from a doubtful curve fit.

Sequences of proteins named here, by UniProt entry; tags and fusion partners are left off. A change or cut given only in a name is not applied to a line headed by its entry.
UniProt P18054: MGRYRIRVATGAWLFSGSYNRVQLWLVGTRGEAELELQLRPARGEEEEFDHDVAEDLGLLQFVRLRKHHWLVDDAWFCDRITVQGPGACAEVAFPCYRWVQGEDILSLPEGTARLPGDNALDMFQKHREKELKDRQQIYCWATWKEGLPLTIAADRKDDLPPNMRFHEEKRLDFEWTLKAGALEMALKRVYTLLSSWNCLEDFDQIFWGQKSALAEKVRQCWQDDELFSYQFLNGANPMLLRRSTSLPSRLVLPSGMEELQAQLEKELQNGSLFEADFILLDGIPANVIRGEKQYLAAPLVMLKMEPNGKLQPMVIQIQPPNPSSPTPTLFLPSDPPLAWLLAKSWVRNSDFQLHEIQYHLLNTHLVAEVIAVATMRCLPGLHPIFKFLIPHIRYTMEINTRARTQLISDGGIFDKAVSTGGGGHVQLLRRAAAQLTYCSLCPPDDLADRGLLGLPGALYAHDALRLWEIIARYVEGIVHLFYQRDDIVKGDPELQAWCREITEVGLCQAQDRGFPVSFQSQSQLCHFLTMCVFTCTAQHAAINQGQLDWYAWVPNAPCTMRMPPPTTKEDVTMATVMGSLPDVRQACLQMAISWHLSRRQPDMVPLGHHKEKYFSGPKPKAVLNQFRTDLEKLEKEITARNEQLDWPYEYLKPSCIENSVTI

Target: Polyunsaturated fatty acid lipoxygenase ALOX12 (Homo sapiens) (UniProt P18054)
Test: Primary qHTS assay for inhibitors of human arachidonate 12S-lipoxygenase (ALOX12): Round 2
Conditions: purified 12hLO, xylenol orange hydroperoxide absorbance; series mostly up to 108 µM
In short: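 Purified human 12hLO (150 nM final) in 25 mM Hepes, 0.01% Triton X-100, pH 7.0 was preincubated 15 min at room temperature with compound. Then 40 uM arachidonic acid was added, 30 min. Hydroperoxide was read by Fe-XO absorbance ratio 573/405 nm.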
Potency means the concentration at half of the fitted maximal effect.

Row | SMILES | Potency
1 | CC(=O)C1=C(O)C(=O)N(c2ccc(S(=O)(=O)Nc3nccs3)cc2)C1c1ccc(F)cc1 (stereo not given) | inconclusive: 35.5 µM [inhibitor, partial curve, poor fit]
2 | CC(C)Oc1ccc2c(NC(=O)CCn3cncn3)nn(Cc3ccccc3)c2c1 | inactive
3 | Oc1ccc(Br)cc1-c1nc2cnccn2c1NC1CCCCC1 | inconclusive: 56.2 µM [inhibitor, partial curve, poor fit]
4 | C=CCn1c(=O)c2ccc(C(=O)NCc3ccccc3)cc2n(Cc2cccc(Cl)c2)c1=O | inactive
5 | C=CCn1c(SCCCc2ccccc2)nc2c1c(=O)n(C)c(=O)n2C | inactive
6 | Cc1ccc2c(c1)NC(=O)C(CC(=O)N(C)Cc1ccccc1)O2 (stereo not given) | inconclusive: 50.1 µM [inhibitor, single point]
7 | Cc1cc(C)c2nc(N3CCCN(C(=O)c4ccco4)CC3)c(C#N)cc2c1 | inconclusive: 14.1 µM [inhibitor, partial curve]
8 | Cn1c(=O)oc2cc(S(=O)(=O)CCC(=O)NCc3ccc(Cl)cc3)ccc21 | inconclusive: 4.47 µM [inhibitor, full curve]
9 | CC(=O)C1=CC[C@H]2[C@@H]3CC[C@H]4C[C@@H](O)CC[C@]4(C)[C@H]3CC[C@]12C | inconclusive: 3.16 µM [inhibitor, full curve, poor fit]
10 | CCCCCCCC(=O)Nc1c(C)cc(C)cc1C | inactive
11 | O=c1c2[nH]c3ccccc3c2ncn1Cc1ccco1 | inactive
12 | O=C(Oc1ccc2c(=O)c(-c3ccccc3)coc2c1)c1ccco1 | inconclusive: 44.7 µM [inhibitor, partial curve, poor fit]
13 | O=[N+]([O-])c1cccc(-c2nnc(-c3ccccc3F)o2)c1 | inactive
14 | COc1ccccc1CC(=O)Nc1ccc2c(c1)NC(=O)CS2 | inconclusive: 56.2 µM [inhibitor, partial curve, poor fit]
15 | COc1ccc(CNC(=O)CCCn2c(C)c3cnn(-c4ccccc4)c(=O)c3c2C)cc1 | inconclusive: 3.55 µM [inhibitor, full curve, poor fit]
16 | O=C(c1cc2ccccc2[nH]1)N1CCC2(C1)NC(=O)N(Cc1ccc(Cl)cc1)C2=O (stereo not given) | inconclusive: 20 µM [inhibitor, full curve]
17 | OCc1ccccc1-c1ccc2nccn2c1 | inconclusive: 22.4 µM [inhibitor, partial curve]
18 | COc1cccc(C(=O)N2CCC(n3cc(-c4nc(-c5ccccc5)no4)nn3)C2)c1 (stereo not given) | inconclusive: 31.6 µM [inhibitor, partial curve, poor fit]
19 | Cc1[nH]c2ccccc2c1C(c1ccccc1O)c1c(C)[nH]c2ccccc12 | inconclusive: 14.1 µM [inhibitor, full curve, poor fit]
20 | CCOCCn1ccc2c(OCC(=O)Nc3cc(C)cc(C)c3)cccc2c1=O | inactive
21 | O=C(O)C[C@@H]1CCN(C(=O)Cc2cccs2)C[C@@H]1CCN1CCN(c2ccc(F)cc2)CC1 | inconclusive: 8.91 µM [inhibitor, partial curve, poor fit]
22 | COc1ccc(-c2cn3nc(SCC(=O)Nc4cccc(C)c4C)ccc3n2)cc1 | inconclusive: 50.1 µM [inhibitor, partial curve, poor fit]

Entries shown so far with an aryl methoxy group:
Row | SMILES | Potency
14 | COc1ccccc1CC(=O)Nc1ccc2c(c1)NC(=O)CS2 | inconclusive: 56.2 µM [inhibitor, partial curve, poor fit]
15 | COc1ccc(CNC(=O)CCCn2c(C)c3cnn(-c4ccccc4)c(=O)c3c2C)cc1 | inconclusive: 3.55 µM [inhibitor, full curve, poor fit]
18 | COc1cccc(C(=O)N2CCC(n3cc(-c4nc(-c5ccccc5)no4)nn3)C2)c1 (stereo not given) | inconclusive: 31.6 µM [inhibitor, partial curve, poor fit]
22 | COc1ccc(-c2cn3nc(SCC(=O)Nc4cccc(C)c4C)ccc3n2)cc1 | inconclusive: 50.1 µM [inhibitor, partial curve, poor fit]

Later entries

Row | SMILES | Potency
23 | Cc1ccc(NC(=O)N2CC=C(c3c[nH]c4ccccc34)CC2)cc1Cl | inactive
24 | CCn1c(SCC(=O)N(C)c2c(N)n(Cc3ccccc3)c(=O)[nH]c2=O)nc2ccccc21 | inactive
25 | COc1ccc(-c2cc(C(=O)O)c3c(C(C)C)noc3n2)cc1OC | inconclusive: 8.91 µM [inhibitor, full curve]
26 | COc1ccc(S(=O)(=O)Nc2ccc(S(=O)(=O)N3CCOCC3)cc2)cc1C | inactive
27 | Cc1cnc(CC2CCCNC2)n1Cc1ccc(F)cc1 (stereo not given) | inconclusive: 5.01 µM [inhibitor, full curve, poor fit]
28 | O=C(CCc1ccccc1)Nc1ccc2c(c1)CCC2 | inactive
29 | Cc1ccc(OCc2cc(C(=O)N(CCO)Cc3cccs3)no2)cc1C | inconclusive: 50.1 µM [inhibitor, single point]
30 | Cc1cccc(-n2cc(CN(C)C(C)c3ccon3)c(-c3cccc(F)c3)n2)c1 (stereo not given) | inactive
31 | O=C(Nc1ccccn1)c1ccc(CN(c2ccccc2)S(=O)(=O)c2ccccc2)cc1 | inactive
32 | Cc1c[nH]c2cccc(OCC(CNC(C)(C)C)OC(=O)c3ccccc3)c12 (stereo not given) | inconclusive: 56.2 µM [inhibitor, partial curve, poor fit]
33 | O=C(CSc1nnc(-c2cccs2)n1-c1ccccc1)Nc1ccc(Cl)cn1 | inconclusive: 0.199 µM [inhibitor, full curve, poor fit]
34 | O=C(c1ccc(-c2ncc3cnc(-c4cccc(F)c4)cn23)cc1)N1CC(O)C1 | inconclusive: 44.7 µM [inhibitor, partial curve]
35 | COc1cccc(-c2cc(NCCc3c[nH]c4ccc(OC)cc34)ncn2)c1 | inconclusive: 10 µM [inhibitor, partial curve, poor fit]
36 | COc1ccc(Cc2nc3ccccc3n2CC(=O)N/N=C/c2ccc(C)cc2O)cc1OC | inactive
37 | CCOC(=O)C1=C(c2ccccc2)OC(N)=C(C#N)C1c1cccs1 (stereo not given) | inconclusive: 50.1 µM [inhibitor, partial curve, poor fit]
38 | COc1ccc(CC(=O)Nc2nccs2)cc1OC | inactive
39 | O=C(CSc1ccccn1)c1ccc(C2CC2(Cl)Cl)cc1 (stereo not given) | inactive
40 | O=c1c(S(=O)(=O)c2ccc(Cl)cc2)cn(Cc2ccccc2F)c2ccc(F)cc12 | inactive
41 | O=C(/C=C/c1ccc(F)cc1)c1ccc(O)cc1 | inconclusive: 63.1 µM [inhibitor, partial curve, poor fit]
42 | O=C(O)CC/C(=C\c1cc2c(cc1Br)OCO2)c1nc2ccccc2s1 | inconclusive: 50.1 µM [inhibitor, partial curve, poor fit]
43 | CCOc1ccc2oc(=O)cc(CN3CCN(c4ccccc4)CC3)c2c1 | inactive
44 | COc1cc(/C=C(/CC(=O)O)c2nc3ccccc3s2)cc(OC)c1 | inconclusive: 12.6 µM [inhibitor, full curve, poor fit]

Row | SMILES | Potency
45 | COc1ccc(N2C(=O)/C(=C\c3ccco3)N=C2SCC(=O)N(C(C)C)C(C)C)cc1Cl | inconclusive: 100 µM [inhibitor, single point]
46 | COc1ccc(S(=O)(=O)Nc2ccc3c(c2)C(=O)N([C@H](C)CO)C[C@H](C)[C@@H](CN(C)C(=O)Nc2ccc(C(F)(F)F)cc2)O3)cc1 | inconclusive: 100 µM [inhibitor, single point]
47 | N#Cc1c(C(F)(F)F)cc(-c2cccs2)nc1SC(C(=O)O)c1ccccc1 (stereo not given) | inconclusive: 50.1 µM [inhibitor, partial curve, poor fit]
48 | O=C(CSc1nnnn1C1CCCC1)N1N=C(c2cc3ccccc3o2)CC1c1ccco1 (stereo not given) | inconclusive: 31.6 µM [inhibitor, partial curve]
49 | CC1(C)CC(=O)c2c(O)cc(OCC(=O)Nc3ccc(S(N)(=O)=O)cc3)cc2O1 | inconclusive: 39.8 µM [inhibitor, single point]
50 | C[n+]1cnc(-c2ccccc2)cc1-c1ccccc1 | inconclusive: 44.7 µM [inhibitor, partial curve, poor fit]
51 | CCc1nnc(N/N=C/c2ccc(N3CCC(C)CC3)c([N+](=O)[O-])c2)n1N | inconclusive: 70.8 µM [inhibitor, partial curve, poor fit]
52 | CCOC(=O)c1c(NC(=O)COC(=O)c2cnccn2)sc(C(=O)NC)c1C | inactive
53 | CCN(CC)S(=O)(=O)c1cccc(NC(=O)CN2c3cccc4cccc(c34)S2(=O)=O)c1 | inconclusive: 44.7 µM [inhibitor, single point]
54 | COc1cccc2[nH]c(C(=O)NCC3CCCO3)cc12 (stereo not given) | inconclusive: 100 µM [inhibitor, single point]
55 | COC(=O)CN1C(=O)[C@H]2[C@@H](c3ccc(C)o3)N3C(=O)CN(Cc4ccccc4)C(=O)[C@@]3(C)[C@H]2C1=O | inactive
56 | CCOC(=O)N1C(=O)[C@@](c2ccc(Cl)cc2)(C(C)C)N1C(=O)OCC | inactive
57 | CCOC(=O)/C(=N/Nc1ccccc1)Sc1nnnn1-c1ccc(C)cc1 | inconclusive: 44.7 µM [inhibitor, partial curve, poor fit]
58 | Nc1nc2cc3c(cc2cc1C(=O)NCCc1c[nH]c2ccccc12)OCO3 | inconclusive: 50.1 µM [inhibitor, partial curve, poor fit]
59 | Cc1ccc(-c2nc(CN3CCCC3c3cccs3)co2)c(C)c1 (stereo not given) | inconclusive: 56.2 µM [inhibitor, partial curve, poor fit]
60 | O=C(Nc1ccc(Cl)cc1)Nc1ccc(Cl)c(C(F)(F)F)c1 | inconclusive: 44.7 µM [inhibitor, partial curve, poor fit]
61 | COc1cc(C=O)c(Br)cc1OCC(=O)NCCc1ccccc1 | inactive
62 | Cc1ccccc1OCCN1CCC(Cc2ccccc2)CC1 | inconclusive: 1.78 µM [inhibitor, full curve, poor fit]
63 | Nc1ccccc1SC(CC(=O)c1ccccc1)c1ccc([N+](=O)[O-])cc1 (stereo not given) | inconclusive: 17.8 µM [inhibitor, full curve]
64 | COc1cc(C(=O)N2CC(=O)Nc3ccc(C)cc3C2c2ccc(F)cc2)cc(OC)c1OC (stereo not given) | inconclusive: 126 µM [inhibitor, partial curve, poor fit]
65 | Cc1nc(NC(=O)C2CC(=O)N(CC(C)C)C2)sc1C (stereo not given) | inconclusive: 0.224 µM [inhibitor, full curve, poor fit]
